# In the supplement of paper PMC4635364:
# Some of the results follow. Repeats in this data set agree poorly, so a single value says little.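 Human fetal ventral-midbrain neural progenitor line ReNCell VM, differentiated without mitogens. Images stained for doublecortin (early neurons) or tyrosine hydroxylase (dopaminergic neurons) were scored by blinded raters against untreated wells (0 = no change). Repeats and both raters were averaged, and compounds averaging 2 or higher were picked as hits for retesting.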
# System: ReNCell VM
# Test: neuronal differentiation score (DCX+ cell fraction vs untreated, manual image score) (score (-3 to 3)); higher = more neuronal differentiation
# Details: library: Spectrum; 2 uM; 2 weeks
row,SMILES,neuronal differentiation score
1,Nc1c2ccccc2nc2ccccc12,inactive: 0
2,C[C@H](CCC(=O)O)[C@H]1CC[C@H]2[C@@H]3[C@H](O)C[C@@H]4C[C@H](O)CC[C@]4(C)[C@H]3C[C@H](O)[C@]12C,inactive: 0
3,Cc1cc(NS(=O)(=O)c2ccc(N)cc2)no1,inactive: 1
4,CCCCC1C(=O)N(c2ccccc2)N(c2ccccc2)C1=O,inactive: 0
5,C[C@]12CC[C@@H]3c4ccc(O)cc4CC[C@H]3[C@@H]1C[C@H](O)[C@@H]2O,inactive: 0
6,C[C@H]1COC2=C1C(=O)C(=O)c1c2ccc2c1CCCC2(C)C,inactive: 0
7,NC(=O)N[C@@H](CCC(=O)O)C(=O)O,inactive: 0
8,CN1CCN(c2c(F)cc3c(=O)c(C(=O)O)cn4c3c2SCC4)CC1,inactive: 0
9,CCCCCCCCCCCCCCCC(=O)O[C@@H]1[C@@H](O)[C@@H](O)[C@@H]([C@H](NC(=O)[C@@H]2C[C@@H](CCC)CN2C)[C@H](C)Cl)O[C@@H]1SC,inactive: 0
10,CC(C)(O)CC[C@@H](O)[C@](C)(O)[C@H]1CC[C@@]2(O)C3=CC(=O)[C@@H]4C[C@@H](O)[C@@H](O)C[C@]4(C)[C@H]3CC[C@]12C,inactive: 0
11,C=C1C2CC[C@@]3(C)[C@H](c4ccoc4)OC(=O)C[C@]13O[C@H]1CC(O)C(C)(C)C(CC(=O)OC)[C@@]21C (stereo partly drawn) [3alpha-HYDROXY-3-DEOXYANGOLENSIC ACID METHYL ESTER],inactive: 0
